{
  "source": "paper PMC1796622",
  "target": "HA-tagged APOBEC3G (UniProt Q9HC16)",
  "assay": "SEC; lysates of purified HIV-1ΔVif virions with or without HA-A3G on Superose 6 HR 10/30 (FPLC); 50 mM HEPES pH 7.4, 125 mM NaCl, 0.1% NP-40, 1 mM dithiothreitol, 10% glycerol; 1-ml fractions immunoblotted",
  "note": "No constants are given. Whether binding was seen depends on the method and setting.",
  "data": [
    {"substance": "HIV-1 gp41 (from UniProt P03377 517-861)", "values": [
      {"measurement": "binding", "value": "no binding"}
    ]}
  ]
}
